# Assay results from article PMC5996148.
# The list shows a part of the results. For some assays here: The source does not settle which construct or isoform was used.
# Assays:
# Test in all cases: protein microarray (ProtoArray v5.0), streptavidin-Alexa Fluor 647
# Settings in all cases: 3'-biotin; 20 mM Tris (pH 7.5), 5 mM MgCl2, 100 mM KCl, 0.1% Tween-20, A/T-rich and random oligonucleotide blockers; temperature not stated; high values mean tight binding
# TM2D2 (human) = tested on: TM2D2 (human)
# TM4SF19 (human) = tested on: TM4SF19 (human)
# TM4SF4 (human) = tested on: TM4SF4 (human)
# TMCC2 (human) = tested on: TMCC2 (human)
# TMCO2 (human) = tested on: TMCO2 (human)
# TMCO5 (human) = tested on: TMCO5 (human)
# TMED1 (human) = tested on: TMED1 (human)
# TMED2 (human) = tested on: TMED2 (human)
# TMEM101 (human) = tested on: TMEM101 (human)
# TMEM103 (human) = tested on: TMEM103 (human)
# TMEM129 (human) = tested on: TMEM129 (human)
# TMEM138 (human) = tested on: TMEM138 (human)
# TMEM139 (human) = tested on: TMEM139 (human)
# TMEM149 (human) = tested on: TMEM149 (human)
# TMEM14C (human) = tested on: TMEM14C (human)
# TMEM159 (human) = tested on: TMEM159 (human)
# TMEM17 (human) = tested on: TMEM17 (human)
# TMEM170 = molecular target: T1, TMEM170 (UniProt Q8WVE7)
# T1 sequence: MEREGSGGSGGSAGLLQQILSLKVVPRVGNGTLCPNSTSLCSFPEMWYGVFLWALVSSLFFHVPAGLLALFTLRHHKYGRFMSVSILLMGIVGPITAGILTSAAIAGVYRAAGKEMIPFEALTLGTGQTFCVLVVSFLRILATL
# TMEM174 (human) = tested on: TMEM174 (human)
# TMEM176A (human) = tested on: TMEM176A (human)
sequence,measurement,setting,value
GGGAGGCTGAGGCAGG [G4-1 biotinylated (PQS2)],binding signal,TM2D2 (human),-0.303 z-score
same,binding signal,TM4SF19 (human),-0.319 z-score
same,binding signal,TM4SF4 (human),-0.325 z-score
same,binding signal,TMCC2 (human),-0.29 z-score
same,binding signal,TMCO2 (human),-0.285 z-score
same,binding signal,TMCO5 (human),-0.234 z-score
same,binding signal,TMED1 (human),-0.303 z-score
same,binding signal,TMED2 (human),-0.3 z-score
same,binding signal,TMEM101 (human),-0.306 z-score
same,binding signal,TMEM103 (human),-0.319 z-score
same,binding signal,TMEM129 (human),-0.322 z-score
same,binding signal,TMEM138 (human),-0.344 z-score
same,binding signal,TMEM139 (human),-0.302 z-score
same,binding signal,TMEM149 (human),-0.335 z-score
same,binding signal,TMEM14C (human),-0.326 z-score
same,binding signal,TMEM159 (human),-0.355 z-score
same,binding signal,TMEM17 (human),-0.342 z-score
same,binding signal,TMEM170,-0.326 z-score
same,binding signal,TMEM174 (human),-0.265 z-score
same,binding signal,TMEM176A (human),-0.317 z-score

# Some of the entries so far, tab-delimited:
sequence	measurement	setting	value
GGGAGGCTGAGGCAGG [G4-1 biotinylated (PQS2)]	binding signal	TMEM14C (human)	-0.326 z-score
same	binding signal	TMEM176A (human)	-0.317 z-score
